Measured values from the supplement of paper PMC10663445.
Structures can show the parent of a compound that is named as a salt. The list shows a part of the results. Many values rest on one well or one pass, so single values are uncertain.

system: hsa-miR-132-3p; assay: miR-132-3p level in NGN2-iNs after compound treatment (TMM-normalised, ComBat batch-corrected) (batch-corrected normalised expression (arbitrary units)); higher = higher miR-132-3p expression; conditions: 10 µM; 24 h; human iPSC-derived NGN2 neurons (BR43)

Row | Compound | miR-132-3p level in NGN2-iNs
1 | CC1(C)Cc2c(-c3ccccc3)c(-c3ccc(Cl)cc3)c(CC(=O)O)n2C1 [Licofelone (ML3000)] | -0.414
2 | O=C(/C=C/c1cccc(S(=O)(=O)Nc2ccccc2)c1)NO [Belinostat (PXD101)] | 0.686
3 | CC#CCn1c(N2CCC[C@@H](N)C2)nc2c1c(=O)n(Cc1nc(C)c3ccccc3n1)c(=O)n2C [Linagliptin] | -0.828
4 | CCN(CC)CCOCCOC(=O)C1(c2ccccc2)CCCC1 [Pentoxyverine Citrate] | 0.253
5 | Cc1cc(C(C)(C)C)cc(C)c1CC1=NCCN1 [Xylometazoline HCl] | -0.799
6 | COc1cc(NC(=O)c2ccccn2)ccc1Cl | -0.477
7 | CC(C)(CO)[C@@H](O)C(=O)NCCC(=O)O [D-Pantothenic acid] | -0.532
8 | O=c1c(O)c(-c2ccc(O)cc2)oc2cc(O)cc(O)c12 [Kaempferol] | -1.3
9 | CNC(=O)c1ccc(N2C(=S)N(c3ccc(C#N)c(C(F)(F)F)c3)C(=O)C2(C)C)cc1F [Enzalutamide (MDV3100)] | 0.207
10 | CCCc1ccc(OCC(=O)N(Cc2nc(-c3cccnc3)no2)C(C)C)cc1 | 0.342
11 | COc1cc(OC)c(NC(=O)Nc2cc(C)on2)cc1Cl | -0.547
12 | NC[C@H](O)c1ccc(O)c(O)c1 [Noradrenaline bitartrate monohydrate] | -1.49
13 | CCN(CC)CCNC(=O)c1ccc(N)cc1 [Procainamide HCl] | -0.104
14 | CCn1c(N)c(C(=O)NC)c(=O)c2ccc(C#CC(C)(O)COC)nc21 (configuration not stated) | 1.09
15 | CC[C@H]1OC(=O)[C@H](C)[C@@H](O[C@H]2C[C@@](C)(OC)[C@@H](O)[C@H](C)O2)[C@H](C)[C@@H](O[C@@H]2O[C@H](C)C[C@H](N(C)C)[C@H]2O)[C@](C)(O)C[C@@H](C)CN(C)[C@H](C)[C@@H](O)[C@]1(C)O [Azithromycin] | 1.12
16 | OCCn1cc(-c2ccc3c(c2)CC/C3=N\O)c(-c2ccncc2)n1 | 0.641
17 | CN1CCc2nc(C(=O)N[C@@H]3C[C@@H](C(=O)N(C)C)CC[C@@H]3NC(=O)C(=O)Nc3ccc(Cl)cn3)sc2C1 [Edoxaban tosylate Monohydrate] | -0.494
18 | CC(C)[N+]1(C)[C@@H]2CC[C@H]1C[C@@H](OC(=O)C(CO)c1ccccc1)C2 (some centres not stated) [Ipratropium Bromide] | 0.293
19 | O=C(O)c1cccc(-c2noc(-c3ccccc3F)n2)c1 [Ataluren (PTC124)] | -0.725
20 | C[C@]12CC[C@@H]3c4ccc(O)cc4C[C@@H](CCCCCCCCC[S+]([O-])CCCC(F)(F)C(F)(F)F)[C@H]3[C@@H]1CC[C@@H]2O (some centres not stated) [Fulvestrant] | 0.101
21 | Clc1ccc(C2(c3ccc(-c4cn[nH]c4)cc3)CCNCC2)cc1 | 1.36
22 | CCS(=O)(=O)c1cccc(-c2cc(C(=O)NC3CCN(C)CC3)c(C)c3[nH]c4ncc(C)cc4c23)c1 | 0.352
23 | COC(=O)[C@H](Cc1ccccc1)NC(=O)[C@@H](N)CC(=O)O [Aspartame] | -0.502
24 | NC(=O)C1CCCc2c1[nH]c1ccc(Cl)cc21 (configuration not stated) [Selisistat (EX 527)] | -2.85
25 | N#C/C(=C1/SC[C@@H](c2ccc(Cl)cc2Cl)S1)n1ccnc1 [Luliconazole] | -0.416
26 | CCCCOc1cc(C(=O)OCCN(CC)CC)ccc1N [Oxybuprocaine HCl] | 0.208

Row | Compound | miR-132-3p level in NGN2-iNs
27 | O=C1O[C@H]([C@@H](O)CO)C([O-])=C1O.[Na+] [Sodium ascorbate] | 0.623
28 | Cc1ccc(S(=O)(=O)Nc2nc3ccccc3nc2Nc2ccc3nsnc3c2)cc1 [XL147 analogue] | -0.169
29 | NC1(Cc2ccc(Cl)cc2)CCN(c2ncnc3[nH]ccc23)CC1 | -1.41
30 | Cc1cc(C(C)Nc2ccccc2)c2nc(N3CCOCC3)cc(=O)n2c1 (configuration not stated) | -2.85
31 | Clc1ccc2nsnc2c1NC1=NCCN1 [Tizanidine HCl] | -0.206
32 | CC(C)Oc1ccc2c(=O)c(-c3ccccc3)coc2c1 [Ipriflavone (Osteofix)] | -0.656
33 | CCCCOc1ccc(C(=O)Nc2ccc(F)cc2F)cc1 | -1.06
34 | Nc1nc(OCc2cc(Br)cs2)c2[nH]cnc2n1 [Lomeguatrib] | -2.33
35 | CCOc1nc2cccc(C(=O)O)c2n1Cc1ccc(-c2ccccc2-c2nnn[nH]2)cc1 [Candesartan] | 0.526
36 | C[C@@](Cc1ccc(O)c(O)c1)(NN)C(=O)O [Carbidopa] | -0.247
37 | CC1CCN(CC[C@H]2CCCN2S(=O)(=O)c2cccc(O)c2)CC1 | 0.0781
38 | Nc1ncnc2c1ncn2[C@@H]1O[C@H](CO)[C@@H](O)[C@@H]1O [Vidarabine] | 1.99
39 | CN(C)CCC(c1ccc(Br)cc1)c1ccccn1 (configuration not stated) [Brompheniramine hydrogen maleate] | 0.372
40 | COc1ccc(Cl)cc1NC(=O)Nc1cc(C)nc2ccccc12 | -0.523
41 | O=C1CC[C@@H](C(=O)N2CSC[C@H]2C(=O)O)N1 [Pidotimod] | -0.482
42 | c1ccc(-c2ccc(C(c3ccccc3)n3ccnc3)cc2)cc1 (configuration not stated) [Bifonazole] | 0.318
43 | CCCCNc1ncc(C(=O)NCc2ccc(-n3ccnc3)cc2)c(NC2CCC(O)CC2)n1 (configuration not stated) | -0.41
44 | CCOC(=O)[C@H]1O[C@@H]1C(=O)N[C@@H](CC(C)C)C(=O)NCCC(C)C [Aloxistatin (E64d)] | 0.282
45 | COc1cccc(C=NCCN=Cc2cccc(OC)c2[O-])c1[O-].[Cl-].[Mn+3] | -0.6
46 | COC(=O)Nc1nc2cc(Sc3ccccc3)ccc2[nH]1 [Fenbendazole] | 1.59
47 | CC(C)NC[C@@H](C(=O)N1CCN(c2ncnc3c2[C@H](C)C[C@H]3O)CC1)c1ccc(Cl)cc1 [Ipatasertib (GDC-0068)] | 1.03
48 | CCCNC(=O)NS(=O)(=O)c1ccc(Cl)cc1 [Chlorpropamide] | -2.23
49 | COc1ccc(-c2nc(N3CCOCC3)c3sc(CN(C)c4ncc(C(=O)NO)cn4)cc3n2)cn1 | -0.747
50 | COc1cc(-c2ncn(/C=C\C(=O)OC(C)C)n2)cc(C(F)(F)F)c1 | -0.816
51 | Cn1ncnc1[C@H]1c2n[nH]c(=O)c3cc(F)cc(c23)N[C@@H]1c1ccc(F)cc1 [Talazoparib (BMN 673)] | -1.28
52 | Cc1cnc(Nc2ccc(OCCN3CCCC3)cc2)nc1Nc1cccc(S(=O)(=O)NC(C)(C)C)c1 | -0.413

14 consecutive entries from above:
Row | Compound | miR-132-3p level in NGN2-iNs
35 | CCOc1nc2cccc(C(=O)O)c2n1Cc1ccc(-c2ccccc2-c2nnn[nH]2)cc1 [Candesartan] | 0.526
36 | C[C@@](Cc1ccc(O)c(O)c1)(NN)C(=O)O [Carbidopa] | -0.247
37 | CC1CCN(CC[C@H]2CCCN2S(=O)(=O)c2cccc(O)c2)CC1 | 0.0781
38 | Nc1ncnc2c1ncn2[C@@H]1O[C@H](CO)[C@@H](O)[C@@H]1O [Vidarabine] | 1.99
39 | CN(C)CCC(c1ccc(Br)cc1)c1ccccn1 (configuration not stated) [Brompheniramine hydrogen maleate] | 0.372
40 | COc1ccc(Cl)cc1NC(=O)Nc1cc(C)nc2ccccc12 | -0.523
41 | O=C1CC[C@@H](C(=O)N2CSC[C@H]2C(=O)O)N1 [Pidotimod] | -0.482
42 | c1ccc(-c2ccc(C(c3ccccc3)n3ccnc3)cc2)cc1 (configuration not stated) [Bifonazole] | 0.318
43 | CCCCNc1ncc(C(=O)NCc2ccc(-n3ccnc3)cc2)c(NC2CCC(O)CC2)n1 (configuration not stated) | -0.41
44 | CCOC(=O)[C@H]1O[C@@H]1C(=O)N[C@@H](CC(C)C)C(=O)NCCC(C)C [Aloxistatin (E64d)] | 0.282
45 | COc1cccc(C=NCCN=Cc2cccc(OC)c2[O-])c1[O-].[Cl-].[Mn+3] | -0.6
46 | COC(=O)Nc1nc2cc(Sc3ccccc3)ccc2[nH]1 [Fenbendazole] | 1.59
47 | CC(C)NC[C@@H](C(=O)N1CCN(c2ncnc3c2[C@H](C)C[C@H]3O)CC1)c1ccc(Cl)cc1 [Ipatasertib (GDC-0068)] | 1.03
48 | CCCNC(=O)NS(=O)(=O)c1ccc(Cl)cc1 [Chlorpropamide] | -2.23
